PubChem BioAssay AID2685 (National Center for Advancing Translational Sciences (NCATS), 2010)
The list shows a part of the results. These are further read-outs of the screen, such as a control signal, another cell line or another target. No call is given for them. The list favours compounds with an active or inconclusive main result. Potencies come from curve fits of mixed quality, noted in brackets.

Experiment: qHTS Assay for Lipid Storage Modulators in Drosophila S3 Cells;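 as to cell number change: cells counted by Cell Tracker Red CMTPX staining in the red channel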
Conditions: BODIPY lipid droplet fluorescence, 18-24 h; for cell number change: measured here: cell count max response, cells fed with added oleic acid
Method in brief: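 Drosophila S3 cells loaded with oleic acid (400 uM, as added) and compounds at several concentrations; lipid droplets imaged by 488-nm laser-scanning cytometry, 500–530 nm intensity and object ratio to cell channel. Percent activity normalized to 20 uM Triacsin C.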

[1] = measured here: cell number channel AC50, cells fed with added oleic acid
[2] = measured here: lipid fluorescence (Fed channel) AC50, cells fed with added oleic acid

SMILES | cell number change | AC50 [1] | AC50 [2]
COc1ccc(/C=C2\C(=O)N(c3c(Cl)cc(Cl)cc3Cl)N=C2NC(=O)c2cccc([N+](=O)[O-])c2)cc1 | 19.4% | 0.116 µM [rising, full curve, poor fit] | –
N#CCCSc1ccccc1NC(=O)c1ccc(S(=O)(=O)N2CCCC2)cc1 | 134% | – | –
Cc1cccc(S(=O)(=O)Nc2ccc(-c3nc4ccc(C)cc4s3)cc2)c1 | -43.8% | 29.1 µM [falling, single point] | 29.1 µM [falling, single point]
CSc1nnc(-c2ccc(O)cc2)n1C | 2.51% | – | –
CC(=O)N(CCCN(C)C)CCC(C)CCC=C(C)C (stereo not given) | 4.02% | – | –
CCCCNC(=O)[C@@](CC)(ONc1ccccc1C(F)(F)F)c1cccc2ccccc12 | -36.1% | 16.4 µM [falling, single point] | –
Cc1cc(OCc2cc(C(=O)N3CCCCCC3)no2)cc(C)c1Cl | 36.2% | 0.231 µM [rising, full curve, poor fit] | 29.1 µM [rising, single point]
COc1ccc(CCNC(=O)c2ccc(NS(=O)(=O)c3ccc4[nH]c(=O)[nH]c4c3)cc2)cc1OC | – | – | 0.411 µM [falling, single point]
CS(=O)(=O)N1CCN(c2ccc(NC(=O)c3cccnc3Cl)cc2)CC1 | 51.9% | 23.1 µM [rising, partial curve] | –
O=C(Cc1ccccc1F)Nc1ccc(S(=O)(=O)Nc2ncccn2)cc1 | – | – | 0.231 µM [falling, full curve]
Cc1ccc(NC(=O)CSc2nnc(-c3cccs3)n2Cc2ccco2)cc1 | -24.9% | – | 6.51 µM [rising, single point]
CN(Cc1cn(C)c2ccccc12)C(=S)Nc1cc(F)cc(F)c1 | – | – | 2.31 µM [rising, single point]
CCOn1c(-n2nc(C)cc2C)nc2ccccc2c1=O | 45.8% | 6.51 µM [rising, partial curve] | –
COc1ccccc1CNc1ncnc2cc(Cl)ccc12 | 17.3% | – | 0.00731 µM [falling, full curve, poor fit]
Cn1c(C(C#N)C(=O)c2ccco2)nc2ccccc21 (stereo not given) | -17.2% | – | 14.6 µM [rising, single point]
CCOP(=O)(OCC)C(NC(=O)Nc1ccc(C)cc1)C(N)=O (stereo not given) | 30% | – | 1.64 µM [rising, full curve, poor fit]
Cc1ccc(C(=O)C2=C(O)C(=O)N(CC3CCCO3)C2c2ccccc2F)o1 (stereo not given) | -0.451% | – | 29.1 µM [rising, single point]

Part of the list above, limited to AC50 [2] and cell number change.
SMILES	AC50 [2]	cell number change
COc1ccc(/C=C2\C(=O)N(c3c(Cl)cc(Cl)cc3Cl)N=C2NC(=O)c2cccc([N+](=O)[O-])c2)cc1	–	19.4%
Cn1c(C(C#N)C(=O)c2ccco2)nc2ccccc21 (stereo not given)	14.6 µM [rising, single point]	-17.2%
